# Assay results published in the supplement of paper PMC8728848.
# The other results are listed elsewhere or left out.
# Key:
# Experiment in all cases: glycan array binding signal (z-score within array); higher = stronger binding
# Conditions in all cases: glycan notation: IUPAC condensed, linker removed
# [1] = target: Fuc(a1-2)Gal(b1-4)GlcNAc(b1-3)Gal(b1-4)GlcNAc(b1-3)Gal(b1-4)GlcNAc
# How it was run: (§1)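 Negative Z-scores can be read as non-binding. The Z-score is calculated within each array and then averaged across arrays of one protein sequence at different concentrations or buffers and across linkers. Arrays, 3228 in all, were curated from the Consortium for Functional Glycomics database and kept only where the protein sequence was available.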
# [2] = target: Fuc(a1-2)Gal(b1-4)GlcNAc(b1-3)GalNAc
# How it was run: as §1
# [3] = target: Fuc(a1-2)Gal(b1-4)GlcNAc(b1-3)[Fuc(a1-2)Gal(b1-4)GlcNAc(b1-6)]GalNAc
# How it was run: as §1
# [4] = target: Fuc(a1-2)Gal(b1-4)GlcNAc(b1-3)[Fuc(a1-3)[Gal(b1-4)]GlcNAc(b1-6)]Gal(b1-4)Glc
# How it was run: as §1
# [5] = target: Fuc(a1-2)Gal(b1-4)GlcNAc(b1-6)GalNAc
# How it was run: as §1
# [6] = target: Fuc(a1-2)Gal(b1-4)GlcNAc6S
# How it was run: as §1
# [7] = target: Fuc(a1-2)Gal(b1-4)[Fuc(a1-3)]GlcNAc
# How it was run: as §1
# [8] = target: Fuc(a1-2)Gal(b1-4)[Fuc(a1-3)]GlcNAc(b1-2)Man(a1-3)[Fuc(a1-2)Gal(b1-4)[Fuc(a1-3)]GlcNAc(b1-2)Man(a1-6)]Man(b1-4)GlcNAc(b1-4)[Fuc(a1-6)]GlcNAc
# How it was run: as §1
# [9] = target: Fuc(a1-2)Gal(b1-4)[Fuc(a1-3)]GlcNAc(b1-2)[Fuc(a1-2)Gal(b1-4)[Fuc(a1-3)]GlcNAc(b1-4)]Man(a1-3)[Fuc(a1-2)Gal(b1-4)[Fuc(a1-3)]GlcNAc(b1-2)Man(a1-6)]Man(b1-4)GlcNAc(b1-4)GlcNAc
# How it was run: as §1
# [10] = target: Fuc(a1-2)Gal(b1-4)[Fuc(a1-3)]GlcNAc(b1-3)Gal(b1-4)[Fuc(a1-3)]GlcNAc
# How it was run: as §1
# [11] = target: Fuc(a1-2)Gal(b1-4)[Fuc(a1-3)]GlcNAc(b1-3)Gal(b1-4)[Fuc(a1-3)]GlcNAc(b1-3)Gal(b1-4)[Fuc(a1-3)]GlcNAc
# How it was run: as §1
# [12] = target: Fuc(a1-2)Gal(b1-4)[Fuc(a1-3)]GlcNAc(b1-3)GalNAc
# How it was run: as §1
# [13] = target: Fuc(a1-2)Gal(b1-4)[Fuc(a1-3)]GlcNAc(b1-3)[Neu5Ac(a2-6)Gal(b1-4)GlcNAc(b1-6)]Gal(b1-4)Glc
# How it was run: as §1
# [14] = target: Fuc(a1-2)Gal3S(b1-4)GlcNAc
# How it was run: as §1
# [15] = target: Fuc(a1-2)Gal6S(b1-3)GlcNAc
# How it was run: as §1
# [16] = target: Fuc(a1-2)Gal6S(b1-3)GlcNAc6S
# How it was run: as §1
# Fuc(a1-2)Gal6S(b1-4)Glc = target: Fuc(a1-2)Gal6S(b1-4)Glc
# How it was run: as §1
# [17] = target: Fuc(a1-2)Gal6S(b1-4)Glc6S
# How it was run: as §1
# Fuc(a1-2)[Gal(a1-3)]Gal = target: Fuc(a1-2)[Gal(a1-3)]Gal
# How it was run: as §1
# [18] = target: Fuc(a1-2)[Gal(a1-3)]Gal(b1-3)GalNAc
# How it was run: as §1
# [19] = target: Fuc(a1-2)[Gal(a1-3)]Gal(b1-3)GalNAc(b1-3)Gal(a1-4)Gal(b1-4)Glc
# How it was run: as §1
# [20] = target: Fuc(a1-2)[Gal(a1-3)]Gal(b1-3)GlcNAc
# How it was run: as §1
# [21] = target: Fuc(a1-2)[Gal(a1-3)]Gal(b1-3)GlcNAc(b1-2)Man(a1-3)[Fuc(a1-2)[Gal(a1-3)]Gal(b1-3)GlcNAc(b1-2)Man(a1-6)]Man(b1-4)GlcNAc(b1-4)GlcNAc
# How it was run: as §1
# [22] = target: Fuc(a1-2)[Gal(a1-3)]Gal(b1-3)GlcNAc(b1-2)Man(a1-3)[Fuc(a1-2)[Gal(a1-3)]Gal(b1-3)GlcNAc(b1-2)Man(a1-6)]Man(b1-4)GlcNAc(b1-4)[Fuc(a1-6)]GlcNAc
# How it was run: as §1
# [23] = target: Fuc(a1-2)[Gal(a1-3)]Gal(b1-3)GlcNAc(b1-3)GalNAc
# How it was run: as §1
# [24] = target: Fuc(a1-2)[Gal(a1-3)]Gal(b1-3)GlcNAc(b1-6)GalNAc
# How it was run: as §1
# [25] = target: Fuc(a1-2)[Gal(a1-3)]Gal(b1-4)Glc
# How it was run: as §1
# [26] = target: Fuc(a1-2)[Gal(a1-3)]Gal(b1-4)GlcNAc
# How it was run: as §1
# [27] = target: Fuc(a1-2)[Gal(a1-3)]Gal(b1-4)GlcNAc(b1-2)Man
# How it was run: as §1
# [28] = target: Fuc(a1-2)[Gal(a1-3)]Gal(b1-4)GlcNAc(b1-2)Man(a1-3)[Fuc(a1-2)[Gal(a1-3)]Gal(b1-4)GlcNAc(b1-2)Man(a1-6)]Man(b1-4)GlcNAc(b1-4)GlcNAc
# How it was run: as §1
# [29] = target: Fuc(a1-2)[Gal(a1-3)]Gal(b1-4)GlcNAc(b1-2)Man(a1-3)[Fuc(a1-2)[Gal(a1-3)]Gal(b1-4)GlcNAc(b1-2)Man(a1-6)]Man(b1-4)GlcNAc(b1-4)[Fuc(a1-6)]GlcNAc
# How it was run: as §1
# [30] = target: Fuc(a1-2)[Gal(a1-3)]Gal(b1-4)GlcNAc(b1-3)GalNAc
# How it was run: as §1
# [31] = target: Fuc(a1-2)[Gal(a1-3)]Gal(b1-4)GlcNAc(b1-3)[Fuc(a1-2)[Gal(a1-3)]Gal(b1-4)GlcNAc(b1-6)]GalNAc
# How it was run: as §1
# [32] = target: Fuc(a1-2)[Gal(a1-3)]Gal(b1-4)GlcNAc(b1-6)GalNAc
# How it was run: as §1
# [33] = target: Fuc(a1-2)[Gal(a1-3)]Gal(b1-4)[Fuc(a1-3)]Glc
# How it was run: as §1
# [34] = target: Fuc(a1-2)[Gal(a1-3)]Gal(b1-4)[Fuc(a1-3)]GlcNAc
# How it was run: as §1
# [35] = target: Fuc(a1-2)[Gal(a1-3)]Gal(b1-4)[Fuc(a1-3)]GlcNAc(b1-3)GalNAc
# How it was run: as §1
binder,measurement,setting,value
GS13814A-bth-462-26-462 (Bacteroides thetaiotaomicron) (protein) DDRDNLMVNDQIGLLHSTYTETEIFRGMDTPYQLFVIKSGKGKQETEVSISVDETVLQSYNTDNGTSIQLLPSDCYTILQPALRLNDSDYRKAFDIKWNADRLSDLLSTGKEYGLPIQMSVVQNFISADDERLKTIIVPTIKEPYLQMDVPGMSPVTDFMPTFGDLNERELFVKIRTNYSNDEDISFQIEVDPQLVIDYNTAHGTAYKMLPESSFTVDNKGVILTGMKETFIKIKYHKKGLIPEEGTYLFGDYVLPLRITSVSKYGISPDAASKLYTVKFQPDPIDKKGWSVIDFNNCCTQDGGWYLNMGWGVESLIDNNPGTQWLCRWDVKEPLPYYFVFDMGKEYTLFRFGFANPVAPAAHVWAGTSKAGYVEASIDNENWVKLKDWTSPKIGEPNVNMDVPATQARYIRFVITDTYPTYDGLRVSLGEVYAWGM,glycan array binding signal (z-score),[1],-0.707
same,glycan array binding signal (z-score),[2],-0.823
same,glycan array binding signal (z-score),[3],-0.52
same,glycan array binding signal (z-score),[4],0.763
same,glycan array binding signal (z-score),[5],-0.42
same,glycan array binding signal (z-score),[6],-0.303
same,glycan array binding signal (z-score),[7],0.33
same,glycan array binding signal (z-score),[8],-0.921
same,glycan array binding signal (z-score),[9],0.171
same,glycan array binding signal (z-score),[10],1.33
same,glycan array binding signal (z-score),[11],0.023
same,glycan array binding signal (z-score),[12],2.19
same,glycan array binding signal (z-score),[13],-0.537
same,glycan array binding signal (z-score),[14],-0.428
same,glycan array binding signal (z-score),[15],-0.495
same,glycan array binding signal (z-score),[16],3.15
same,glycan array binding signal (z-score),Fuc(a1-2)Gal6S(b1-4)Glc,0.446
same,glycan array binding signal (z-score),[17],0.375
same,glycan array binding signal (z-score),Fuc(a1-2)[Gal(a1-3)]Gal,0.269
same,glycan array binding signal (z-score),[18],-0.664
same,glycan array binding signal (z-score),[19],-0.882
same,glycan array binding signal (z-score),[20],-0.307
same,glycan array binding signal (z-score),[21],-0.154
same,glycan array binding signal (z-score),[22],-1.04
same,glycan array binding signal (z-score),[23],-0.074
same,glycan array binding signal (z-score),[24],-0.379
same,glycan array binding signal (z-score),[25],-0.178
same,glycan array binding signal (z-score),[26],0.33
same,glycan array binding signal (z-score),[27],-0.054
same,glycan array binding signal (z-score),[28],0.505
same,glycan array binding signal (z-score),[29],-0.69
same,glycan array binding signal (z-score),[30],-0.118
same,glycan array binding signal (z-score),[31],1.55
same,glycan array binding signal (z-score),[32],-1.44
same,glycan array binding signal (z-score),[33],0.027
same,glycan array binding signal (z-score),[34],0.358
same,glycan array binding signal (z-score),[35],-0.497

# 2 entries from above, with tabs:
binder	measurement	setting	value
GS13814A-bth-462-26-462 (Bacteroides thetaiotaomicron) (protein) DDRDNLMVNDQIGLLHSTYTETEIFRGMDTPYQLFVIKSGKGKQETEVSISVDETVLQSYNTDNGTSIQLLPSDCYTILQPALRLNDSDYRKAFDIKWNADRLSDLLSTGKEYGLPIQMSVVQNFISADDERLKTIIVPTIKEPYLQMDVPGMSPVTDFMPTFGDLNERELFVKIRTNYSNDEDISFQIEVDPQLVIDYNTAHGTAYKMLPESSFTVDNKGVILTGMKETFIKIKYHKKGLIPEEGTYLFGDYVLPLRITSVSKYGISPDAASKLYTVKFQPDPIDKKGWSVIDFNNCCTQDGGWYLNMGWGVESLIDNNPGTQWLCRWDVKEPLPYYFVFDMGKEYTLFRFGFANPVAPAAHVWAGTSKAGYVEASIDNENWVKLKDWTSPKIGEPNVNMDVPATQARYIRFVITDTYPTYDGLRVSLGEVYAWGM	glycan array binding signal (z-score)	[19]	-0.882
same	glycan array binding signal (z-score)	[20]	-0.307
